In patent US6548544B1, “Method of treatment of priapism without raising systemic blood pressure” (The National University of Singapore, priority 1999, dated 2003):
Some entries share one result that the patent states for a list of compounds.

Tested on: Pharmacologically Induced Prolonged Erection (Pipe)
Assay: Effect on papaverine- and phenoxybenzamine-induced prolonged erection (PIPE), penile length, baboons
Type: in vivo, baboon
Conditions: intracavernous papaverine (40 mg) or phenoxybenzamine (3 mg)
Procedure: Six male baboons weighing between 8 kg and 12 kg were used for the experiment. The animals were sedated with ketamine and anaesthetised with intravenous pentobarbitone injected through an indwelling venous catheter. Drugs were injected into the right corpora cavornosa at the mid-third of the shaft using a 29G needle and 1 ml syringe. Blood pressure was monitored through a cannulated femoral artery connected to the transducer. A measuring tape was used to measure penile length visually from a marked point at the base of the penis to the tip of urethral orifice. Changes in penile length were recorded for a period of 100 min after injection.
Intracavernous injection of papaverine (40 mg) or phenoxybenzamine (3 mg) which produced maximal penile length within 20 and 40 min were repeated one week later and prostaglandin A2 was given at the peak time of the turgidity.
In baboons, intracavernous injection of papaverine (40 mg) or phenoxybenzamine (3 mg) produced a 130% increase in penile length within […] after administration (Table 1). This increase in penile length lasted for more than 100 min. […]

SMILES: COc1ccc(Cc2nccc3cc(OC)c(OC)cc23)cc1OC [Papaverine, papaverine]
- duration of increase in penile length: more than 100 min
